Counter-ions that a name gives are not always drawn. The list shows a part of the results. Hit calls seldom repeat between salt and free forms of one compound.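 Kinases were expressed as nanoluciferase fusions in K562 cells and luminescence was read every 4 h between 2 and 18 h as percent of control, DMSO set to 100% and a positive control to 0%. A time point counts as decreased when the signal drops significantly (2 sigma). The hit call is the authors' own, does not follow from the count of time points alone, and its rule is not shown.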
How the values were obtained:
Assay in all cases: number of time points (of 5) at which kinase-Nluc abundance scored as decreased, DMSO-normalised (count); higher = more persistent destabilization
Conditions in all cases: K562; 2-18 h
CAMK2A = CAMK2A (UniProt Q9UQM7)
CAMK2G = CAMK2G (UniProt Q13555)
CDK10 = CDK10 (UniProt Q15131)
CDK2 = CDK2 (UniProt P24941)
CDK3 = CDK3 (UniProt Q00526)
CDK5 = CDK5 (UniProt Q00535)
CDK6 = CDK6 (UniProt Q00534)
CHEK2 = CHEK2 (UniProt O96017)
CSF1R = CSF1R (UniProt P07333)
CSK = CSK (UniProt P41240)
CSNK1A1 = CSNK1A1 (UniProt P48729)
CSNK1D = CSNK1D (UniProt P48730)
DDR1 = DDR1 (UniProt Q08345)
DYRK1B = DYRK1B (UniProt Q9Y463)
DYRK2 = DYRK2 (UniProt Q92630)
EGFR = EGFR (UniProt P00533)
EGFR_G719S = EGFR_G719S (UniProt P00533)
EGFR_G719S_T790M = EGFR_G719S_T790M (UniProt P00533)
EGFR_L718V = EGFR_L718V (UniProt P00533)
EGFR_L858R = EGFR_L858R (UniProt P00533)

Chains of the proteins cited; added tags and fusions are not shown. Lines headed by an entry give the natural chain unless they say otherwise; changes in a name come on top.
UniProt Q9UQM7, whole entry: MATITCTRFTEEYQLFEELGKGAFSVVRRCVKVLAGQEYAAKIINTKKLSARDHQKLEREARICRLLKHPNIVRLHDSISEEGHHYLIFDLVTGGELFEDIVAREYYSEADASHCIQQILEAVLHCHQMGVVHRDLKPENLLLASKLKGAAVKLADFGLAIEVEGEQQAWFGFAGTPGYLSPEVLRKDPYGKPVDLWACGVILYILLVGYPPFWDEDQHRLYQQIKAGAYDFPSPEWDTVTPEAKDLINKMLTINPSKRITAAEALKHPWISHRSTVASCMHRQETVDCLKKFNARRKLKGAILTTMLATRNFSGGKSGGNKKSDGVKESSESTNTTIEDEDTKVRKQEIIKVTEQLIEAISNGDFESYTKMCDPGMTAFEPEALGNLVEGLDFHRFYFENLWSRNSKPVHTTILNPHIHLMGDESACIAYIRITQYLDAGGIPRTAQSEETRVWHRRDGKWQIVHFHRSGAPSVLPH
UniProt Q13555: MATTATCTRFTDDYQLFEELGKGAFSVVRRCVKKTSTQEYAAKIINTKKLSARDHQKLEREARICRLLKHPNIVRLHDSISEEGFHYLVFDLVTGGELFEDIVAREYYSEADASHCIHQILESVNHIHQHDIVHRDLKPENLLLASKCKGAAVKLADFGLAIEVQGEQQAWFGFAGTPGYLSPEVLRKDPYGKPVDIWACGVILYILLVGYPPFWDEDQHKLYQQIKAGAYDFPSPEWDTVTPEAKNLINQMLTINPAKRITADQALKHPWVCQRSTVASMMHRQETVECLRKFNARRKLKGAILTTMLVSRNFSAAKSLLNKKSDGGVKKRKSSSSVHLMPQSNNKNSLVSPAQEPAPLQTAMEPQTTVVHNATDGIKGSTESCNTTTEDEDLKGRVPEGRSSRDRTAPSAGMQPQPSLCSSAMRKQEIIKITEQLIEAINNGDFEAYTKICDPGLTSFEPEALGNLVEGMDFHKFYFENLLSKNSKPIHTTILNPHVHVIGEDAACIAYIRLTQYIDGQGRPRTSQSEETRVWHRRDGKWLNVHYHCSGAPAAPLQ
UniProt Q15131: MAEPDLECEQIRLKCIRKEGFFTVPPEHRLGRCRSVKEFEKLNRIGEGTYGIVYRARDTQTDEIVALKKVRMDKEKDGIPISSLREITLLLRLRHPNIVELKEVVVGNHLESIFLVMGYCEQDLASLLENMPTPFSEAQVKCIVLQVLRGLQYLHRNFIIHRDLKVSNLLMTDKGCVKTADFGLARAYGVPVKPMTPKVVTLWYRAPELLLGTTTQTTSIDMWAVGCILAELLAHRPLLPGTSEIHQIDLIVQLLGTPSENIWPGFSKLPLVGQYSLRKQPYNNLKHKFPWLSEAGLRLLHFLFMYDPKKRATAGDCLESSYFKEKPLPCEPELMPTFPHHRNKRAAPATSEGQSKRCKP
UniProt Q00526: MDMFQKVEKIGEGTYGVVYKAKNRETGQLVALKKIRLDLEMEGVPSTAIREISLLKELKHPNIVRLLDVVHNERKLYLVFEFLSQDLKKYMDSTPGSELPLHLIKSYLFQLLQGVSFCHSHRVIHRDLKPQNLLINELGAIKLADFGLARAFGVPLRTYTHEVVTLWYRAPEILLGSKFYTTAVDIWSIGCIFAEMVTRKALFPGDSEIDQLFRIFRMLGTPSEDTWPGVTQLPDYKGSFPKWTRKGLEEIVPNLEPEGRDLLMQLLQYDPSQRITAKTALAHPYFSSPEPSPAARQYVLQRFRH
UniProt Q00535, whole entry, looked up: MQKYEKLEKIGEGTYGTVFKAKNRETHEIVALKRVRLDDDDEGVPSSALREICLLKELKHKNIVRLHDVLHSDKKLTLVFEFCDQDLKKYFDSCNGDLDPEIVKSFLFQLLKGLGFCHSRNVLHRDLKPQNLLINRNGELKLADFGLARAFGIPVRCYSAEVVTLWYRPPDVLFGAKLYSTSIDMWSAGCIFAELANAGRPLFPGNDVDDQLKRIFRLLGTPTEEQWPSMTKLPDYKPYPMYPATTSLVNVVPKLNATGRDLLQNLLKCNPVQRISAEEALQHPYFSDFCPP
UniProt Q00534, whole entry: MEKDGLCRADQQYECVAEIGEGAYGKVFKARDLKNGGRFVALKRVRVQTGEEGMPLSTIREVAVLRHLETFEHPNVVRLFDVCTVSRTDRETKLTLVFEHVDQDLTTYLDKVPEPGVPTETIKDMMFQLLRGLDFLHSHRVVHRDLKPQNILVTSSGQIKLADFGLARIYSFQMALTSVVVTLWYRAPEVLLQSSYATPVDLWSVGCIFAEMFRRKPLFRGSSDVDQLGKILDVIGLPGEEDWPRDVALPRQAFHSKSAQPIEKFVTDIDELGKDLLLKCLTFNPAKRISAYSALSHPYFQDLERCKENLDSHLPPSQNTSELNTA
UniProt O96017, whole entry: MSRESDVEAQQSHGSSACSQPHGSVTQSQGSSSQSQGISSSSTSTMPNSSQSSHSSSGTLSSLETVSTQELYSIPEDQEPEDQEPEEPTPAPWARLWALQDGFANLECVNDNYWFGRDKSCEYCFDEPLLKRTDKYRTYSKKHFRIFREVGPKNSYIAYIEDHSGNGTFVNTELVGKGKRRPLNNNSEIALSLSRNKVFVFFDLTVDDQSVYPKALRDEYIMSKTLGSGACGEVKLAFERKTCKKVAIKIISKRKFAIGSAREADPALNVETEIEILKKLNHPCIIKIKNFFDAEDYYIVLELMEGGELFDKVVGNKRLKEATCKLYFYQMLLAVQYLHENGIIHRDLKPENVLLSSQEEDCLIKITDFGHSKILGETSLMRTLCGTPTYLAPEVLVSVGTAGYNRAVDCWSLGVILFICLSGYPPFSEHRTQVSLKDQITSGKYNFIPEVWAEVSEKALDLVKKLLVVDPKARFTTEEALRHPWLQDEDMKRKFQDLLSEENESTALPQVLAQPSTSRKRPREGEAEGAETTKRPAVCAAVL
UniProt P41240: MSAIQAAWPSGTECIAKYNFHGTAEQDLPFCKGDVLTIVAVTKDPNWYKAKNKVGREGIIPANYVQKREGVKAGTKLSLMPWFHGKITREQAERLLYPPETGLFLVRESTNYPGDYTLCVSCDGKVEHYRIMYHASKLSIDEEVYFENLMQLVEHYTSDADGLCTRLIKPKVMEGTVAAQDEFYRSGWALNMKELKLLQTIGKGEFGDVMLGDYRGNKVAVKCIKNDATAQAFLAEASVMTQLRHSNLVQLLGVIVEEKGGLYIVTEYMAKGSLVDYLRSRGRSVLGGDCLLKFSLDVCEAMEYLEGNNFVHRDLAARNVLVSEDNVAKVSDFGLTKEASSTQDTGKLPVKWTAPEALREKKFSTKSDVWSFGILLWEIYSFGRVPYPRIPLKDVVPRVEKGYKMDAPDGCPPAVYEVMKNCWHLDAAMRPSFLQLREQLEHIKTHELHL
UniProt P48729: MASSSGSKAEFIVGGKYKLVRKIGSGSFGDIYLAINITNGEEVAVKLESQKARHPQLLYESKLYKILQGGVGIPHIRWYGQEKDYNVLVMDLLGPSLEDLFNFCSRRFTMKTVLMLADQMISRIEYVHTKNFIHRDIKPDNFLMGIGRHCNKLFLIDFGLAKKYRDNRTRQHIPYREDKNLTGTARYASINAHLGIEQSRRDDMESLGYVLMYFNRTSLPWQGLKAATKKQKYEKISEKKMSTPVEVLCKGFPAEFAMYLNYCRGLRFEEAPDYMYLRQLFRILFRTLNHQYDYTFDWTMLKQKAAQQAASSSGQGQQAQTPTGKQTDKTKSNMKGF
UniProt P48730: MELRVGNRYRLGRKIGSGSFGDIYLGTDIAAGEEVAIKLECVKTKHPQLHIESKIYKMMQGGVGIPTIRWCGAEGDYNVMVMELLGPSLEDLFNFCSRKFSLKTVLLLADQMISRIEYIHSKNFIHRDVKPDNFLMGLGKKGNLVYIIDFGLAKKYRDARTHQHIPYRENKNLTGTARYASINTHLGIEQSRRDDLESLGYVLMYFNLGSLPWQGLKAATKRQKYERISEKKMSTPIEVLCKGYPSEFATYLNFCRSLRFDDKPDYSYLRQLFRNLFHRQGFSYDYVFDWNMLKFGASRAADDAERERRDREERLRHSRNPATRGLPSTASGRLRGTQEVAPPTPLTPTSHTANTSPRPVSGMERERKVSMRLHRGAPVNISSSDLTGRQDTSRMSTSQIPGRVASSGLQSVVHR
UniProt Q08345: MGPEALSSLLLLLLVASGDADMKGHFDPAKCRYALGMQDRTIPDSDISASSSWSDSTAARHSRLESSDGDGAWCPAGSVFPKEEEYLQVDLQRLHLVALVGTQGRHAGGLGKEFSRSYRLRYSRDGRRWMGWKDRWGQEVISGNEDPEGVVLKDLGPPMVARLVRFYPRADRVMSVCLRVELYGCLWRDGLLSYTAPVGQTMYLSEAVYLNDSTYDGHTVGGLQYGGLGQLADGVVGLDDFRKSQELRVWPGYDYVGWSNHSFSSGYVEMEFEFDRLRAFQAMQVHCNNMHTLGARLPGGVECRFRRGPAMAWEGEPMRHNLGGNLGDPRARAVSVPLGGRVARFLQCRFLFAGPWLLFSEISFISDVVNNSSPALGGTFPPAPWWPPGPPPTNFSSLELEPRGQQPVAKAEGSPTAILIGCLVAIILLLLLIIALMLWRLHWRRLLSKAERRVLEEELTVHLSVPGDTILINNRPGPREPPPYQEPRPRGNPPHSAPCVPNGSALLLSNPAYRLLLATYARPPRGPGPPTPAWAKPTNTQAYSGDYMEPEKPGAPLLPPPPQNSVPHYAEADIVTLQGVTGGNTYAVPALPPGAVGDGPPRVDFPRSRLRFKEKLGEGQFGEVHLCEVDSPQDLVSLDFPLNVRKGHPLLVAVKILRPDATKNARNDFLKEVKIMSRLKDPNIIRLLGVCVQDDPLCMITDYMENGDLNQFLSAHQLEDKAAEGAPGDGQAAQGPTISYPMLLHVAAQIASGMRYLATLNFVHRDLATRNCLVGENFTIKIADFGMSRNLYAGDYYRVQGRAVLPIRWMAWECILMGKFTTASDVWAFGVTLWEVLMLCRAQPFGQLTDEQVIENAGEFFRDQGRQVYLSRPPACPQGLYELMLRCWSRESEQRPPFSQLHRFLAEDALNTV
UniProt Q9Y463, whole entry, looked up: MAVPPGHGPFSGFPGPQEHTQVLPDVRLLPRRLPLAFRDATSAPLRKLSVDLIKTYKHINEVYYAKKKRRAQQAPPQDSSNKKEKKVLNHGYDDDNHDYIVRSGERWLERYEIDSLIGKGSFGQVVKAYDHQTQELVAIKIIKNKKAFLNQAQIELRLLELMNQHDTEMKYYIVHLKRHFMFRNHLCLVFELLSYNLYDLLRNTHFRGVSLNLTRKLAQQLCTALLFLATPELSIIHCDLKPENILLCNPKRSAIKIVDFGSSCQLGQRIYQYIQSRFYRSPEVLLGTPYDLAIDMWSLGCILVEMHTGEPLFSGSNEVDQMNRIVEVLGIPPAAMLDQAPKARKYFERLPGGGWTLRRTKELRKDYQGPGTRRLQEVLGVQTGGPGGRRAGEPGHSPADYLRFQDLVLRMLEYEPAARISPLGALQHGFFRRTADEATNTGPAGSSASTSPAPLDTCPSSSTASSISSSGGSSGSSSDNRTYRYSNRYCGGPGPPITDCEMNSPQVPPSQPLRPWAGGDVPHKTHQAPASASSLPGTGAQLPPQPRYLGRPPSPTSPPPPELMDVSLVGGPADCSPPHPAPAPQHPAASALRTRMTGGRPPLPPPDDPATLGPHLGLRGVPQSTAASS
UniProt Q92630: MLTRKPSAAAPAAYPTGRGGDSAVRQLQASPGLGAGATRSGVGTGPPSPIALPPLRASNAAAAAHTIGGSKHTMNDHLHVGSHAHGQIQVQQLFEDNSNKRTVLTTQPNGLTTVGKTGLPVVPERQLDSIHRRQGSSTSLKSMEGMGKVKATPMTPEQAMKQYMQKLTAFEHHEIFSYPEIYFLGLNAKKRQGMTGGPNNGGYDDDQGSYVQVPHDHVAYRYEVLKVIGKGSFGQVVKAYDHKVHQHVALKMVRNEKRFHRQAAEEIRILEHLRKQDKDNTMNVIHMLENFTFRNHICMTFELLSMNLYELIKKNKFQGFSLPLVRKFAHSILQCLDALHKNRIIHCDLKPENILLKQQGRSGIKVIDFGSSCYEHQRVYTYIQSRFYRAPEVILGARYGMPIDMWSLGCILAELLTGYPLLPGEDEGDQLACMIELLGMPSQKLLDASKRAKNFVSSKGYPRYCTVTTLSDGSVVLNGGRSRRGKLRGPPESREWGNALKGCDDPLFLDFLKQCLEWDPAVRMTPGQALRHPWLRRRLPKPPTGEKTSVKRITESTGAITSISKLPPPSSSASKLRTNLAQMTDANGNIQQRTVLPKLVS

Measured: number of time points

CCC(C)(C)C(=O)N(O)Cc1ccccc1 (10 µM)
0: all assays above

O=C(Nc1cccc(-c2nncn2C2CC2)c1)c1cc(-n2cnc(C3CC3)c2)ccn1 (10 µM)
0: all assays above

CC1(COc2ccc3c(c2)ncn3-c2ccc3cccc(N4CCC(N)CC4)c3n2)COC1 [Crenolanib] (2.5 µM)
1: CHEK2 | DYRK2
3: CSF1R | DDR1
2: CDK10
0: all other assays above

CC(C)c1ccc(CC(=O)N2CCN(c3ccc(C#N)nn3)CC2)cc1 (10 µM)
0: all assays above

COc1ccccc1/C=C1\C(=O)Nc2ccccc21 (10 µM)
0: all assays above

C[C@H]1Cc2ccccc2N1C(=O)Cc1nc(N2CCOCC2)cc(=O)[nH]1 (2.5 µM)
0: all assays above

COC1(C(=O)N[C@@H](C)c2ccc(-n3cc(F)cn3)nc2)CCC(c2nc(C)cc(Nc3cc(C)[nH]n3)n2)CC1 (stereo partly drawn) [trans-Pralsetinib] (2.5 µM)
0: all assays above

Oc1ccccc1C(=S)N1CCCC1 (10 µM)
0: all assays above

3 compounds from above, arranged by length of the SMILES, low to high:
Oc1ccccc1C(=S)N1CCCC1 (10 µM)
0: all assays above

COc1ccccc1/C=C1\C(=O)Nc2ccccc21 (10 µM)
0: all assays above

CC(C)c1ccc(CC(=O)N2CCN(c3ccc(C#N)nn3)CC2)cc1 (10 µM)
0: all assays above

Next records follow:

CC(C)Oc1ccc(-c2cnc3c(-c4ccnc5ccccc45)cnn3c2)cc1 (10 µM)
0: all assays above

COC(=O)N[C@@H](C)CNc1nccc(-c2cn(C(C)C)nc2-c2cc(Cl)cc(NS(C)(=O)=O)c2F)n1 [Encorafenib] (10 µM)
0: all assays above

O=Nc1c(-c2c(O)[nH]c3ccccc23)[nH]c2ccccc12 [Indirubin-3'-monoxime] (2.5 µM)
0: all assays above

CC(C)C[C@H](NC(=O)[C@H](CCCCN)NC(=O)[C@H](CO)NC(=O)[C@@H](N)CC(C)C)C(N)=O [LSKL, Inhibitor of Thrombospondin (TSP-1) (TFA)] (10 µM)
0: all assays above

C=CC(=O)Nc1cccc(-n2c(=O)cc(C)c3cnc(Nc4ccc(OCCN(C)C)cc4OC)nc32)c1 (10 µM)
0: all assays above

COc1cc(C(C)=O)cc(OC)c1O [Acetosyringone] (10 µM)
0: all assays above

C[C@@H]1C[C@H]2O[C@@]3(O[C@@H]2C(C)(C)O)[C@H](O)[C@@]2(C)[C@@H]4CC[C@H]5C(C)(C)[C@@H](O[C@@H]6OC[C@H](O)[C@H](O)[C@H]6O)CC[C@@]56C[C@@]46CC[C@]2(C)[C@@H]13 [Cimiracemoside C] (10 µM)
0: all assays above

N#Cc1ccc(-c2c(-c3ncn[nH]3)sc(N3CCOCC3)c2C#N)c(F)c1 (10 µM)
4: DYRK2
3: DDR1
0: all other assays above

CNC(=O)c1cc(Oc2ccc3nc(N[C@@H]4CCCC[C@H]4O)sc3c2)ccn1 (10 µM)
0: all assays above

COc1ccc(CCNc2ncc3c(=O)n(-c4cccc(F)c4)c(=O)[nH]c3n2)cc1OC (2 µM)
0: all assays above

Cn1ncc(Cl)c1-c1cc(C(=O)N[C@H](CN)Cc2ccc(F)c(F)c2)sc1Cl (10 µM)
1: DDR1
0: all other assays above

CC(=O)NCCc1c[nH]c2ccc(O)cc12 [N-Acetyl-5-hydroxytryptamine] (10 µM)
0: all assays above

CC[C@@H]1C(=O)N(C)c2cnc(Nc3ccc(C(=O)N[C@H]4CC[C@H](N5CCN(CC6CC6)CC5)CC4)cc3OC)nc2N1C(C)C [Volasertib] (2.5 µM)
0: all assays above

CCOc1nc(Nc2ccc(C(=O)N3CCOCC3)cc2OC)nc2[nH]ccc12 [LRRK2 inhibitor 1] (2.5 µM)
0: all assays above

C[C@@H]1CCc2ncc(F)cc2[C@H]2CCCN2c2ccn3ncc(c3n2)C(=O)N1 [Selitrectinib] (10 µM)
0: all assays above

CCCCOc1ccc(CC/C=C2\SC(=O)N(CCN)C2=O)cc1 [K145 (hydrochloride)] (2.5 µM)
0: all assays above
